Article PMC5016158
Results are given in words; binding and its absence hold for the method and conditions named. In cells and extracts the contact can be indirect. Some binding calls cover weakened binding; strength is not graded here.

The chains behind the UniProt entries cited, without tags or fusion partners.
UniProt Q9NYV8: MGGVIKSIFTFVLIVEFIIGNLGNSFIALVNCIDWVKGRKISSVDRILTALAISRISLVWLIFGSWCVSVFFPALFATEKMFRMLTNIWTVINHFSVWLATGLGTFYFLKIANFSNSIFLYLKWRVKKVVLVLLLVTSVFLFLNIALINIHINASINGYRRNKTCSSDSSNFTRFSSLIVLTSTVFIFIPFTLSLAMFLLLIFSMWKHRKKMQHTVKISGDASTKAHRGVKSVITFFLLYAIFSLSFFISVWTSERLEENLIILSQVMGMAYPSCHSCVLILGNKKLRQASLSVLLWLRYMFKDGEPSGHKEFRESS

Biological target: β2AR-VN (UniProt P07550)
Test: split reporter; BiFC with Venus fragments VN and VC in live HEK-293T cells, confocal imaging

## TAS2R14-VC (from UniProt Q9NYV8 1-317) (receptor)
  binding: binds
